Source: PubChem BioAssay AID2685 (National Center for Advancing Translational Sciences (NCATS), 2010)
The list shows a part of the results. Further columns of the screen follow, without active or inactive calls. Compounds called inactive in the main read-out are mostly missing here. Words in brackets tell the shape of the fitted curve; partial curves, single points and poor fits give uncertain potencies.

Assay: qHTS Assay for Lipid Storage Modulators in Drosophila S3 Cells;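 as to cell number change: cells counted by Cell Tracker Red CMTPX staining in the red channel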
Details: BODIPY lipid droplet fluorescence, 18-24 h; for cell number change: measured here: cell count max response, cells fed with added oleic acid
How it was run: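 Laser-scanning cytometry quantifies lipid droplet accumulation (500–530 nm total intensity; droplet/cell object ratio) in oleic acid-fed (400 uM added) Drosophila S3 cells treated with a concentration series. 20 uM Triacsin C defined 100% inhibition.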

[1] = measured here: cell number channel AC50, cells fed with added oleic acid
[2] = measured here: lipid fluorescence (Fed channel) AC50, cells fed with added oleic acid

Row | Structure (SMILES) | cell number change | AC50 [1] | AC50 [2]
1 | CCC(=O)OCCn1c(=O)c2cc3c(=O)n(CCOC(=O)CC)c(=O)c3cc2c1=O | -130% | 29.1 µM [falling, partial curve] | –
2 | CC(C)CC(NC(N)=O)C(=O)Nc1ccc(Cl)c(Cl)c1 (centres undefined) | 27.1% | – | 29.1 µM [rising, single point]
3 | CC1CN(S(=O)(=O)c2ccccc2)C(C)N1C(=O)N1CCOCC1 (centres undefined) | -11.2% | – | –
4 | COc1ccc(N(C)C(=O)c2ccc3c(Cl)c4c(nc3c2)CCCC4)c(OC)c1 | 2.29% | – | –
5 | O=S(=O)(c1ccc2c(c1)C(=NO)c1cc(S(=O)(=O)N3CCCCC3)ccc1-2)N1CCCCC1 | – | – | 25.9 µM [falling, partial curve, poor fit]
6 | CCOC(=O)C1=C(C)Nc2nc(SC)nn2C1c1ccc(C(=O)OC)cc1 (centres undefined) | 15.7% | – | 32.6 µM [rising, single point]
7 | Cn1cccc1-c1nc2ccc(NC(=O)c3ccc([N+](=O)[O-])cc3)cc2[nH]1 | – | 6.51 µM [rising, single point] | 6.51 µM [rising, partial curve]
8 | COC(=O)c1c(C)[nH]c(C(=O)CC#N)c1C | -27.8% | – | 0.517 µM [falling, full curve]
9 | Cc1ccccc1NC(=O)c1cc2ccccc2o1 | -0.73% | – | 6.51 µM [rising, single point]
10 | Cc1ccc2[nH]c(=O)c3cc(C(=O)NC(C)C)sc3c2c1 | -13.9% | – | –
11 | CC1(C)CN(c2cccc(Br)c2)C1=O | -108% | 29.1 µM [falling, partial curve, poor fit] | 23.1 µM [falling, single point]
12 | Cc1ccc(C(=O)c2cc([N+](=O)[O-])ccc2N2CCOCC2)cc1C | 1.76% | – | 0.184 µM [falling, full curve, poor fit]
13 | CCCc1cc(C(=O)Cc2ccccn2)c(O)cc1O | -1.39% | – | –
14 | CCCn1nnnc1NC(=O)COc1ccc(Cl)c(C)c1 | 18.7% | – | 7.31 µM [rising, partial curve, poor fit]
15 | O=C(Cn1cnc2scc(-c3ccc(Br)cc3)c2c1=O)N1CCOCC1 | -30.1% | – | –
16 | Cc1ccc(S(=O)(=O)N2CCOCC2)cc1C(=O)OCC(=O)NCc1ccccc1 | 15.9% | 4.11 µM [rising, single point] | –
17 | CCOC(=O)CNC(=O)C12CC3CC(C1)CC(c1ccc(C)cc1)(C3)C2 | -10.2% | 0.00517 µM [falling, full curve, poor fit] | 1.64 µM [falling, partial curve]
18 | O=C(O)C1C2C=CC(O2)C1C(=O)NCc1ccc(Cl)cc1 (centres undefined) | -97.2% | 23.1 µM [falling, single point] | –
19 | Cc1cccc(/N=C/c2c(O)cc(C)oc2=O)n1 | -150% | – | –
20 | Cc1cc(F)ccc1S(=O)(=O)N1CCC2(CC1)OCCN2S(=O)(=O)c1cccs1 | 19.1% | – | 0.366 µM [rising, full curve]
21 | Nc1ncc(Br)cc1S(=O)(=O)N1CCCCCC1 | – | – | 29.1 µM [rising, single point]

Another view of part of the listing above.

| Row | Structure (SMILES) | cell number change | AC50 [1] | AC50 [2] |
| --- | --- | --- | --- | --- |
| 18 | O=C(O)C1C2C=CC(O2)C1C(=O)NCc1ccc(Cl)cc1 (centres undefined) | -97.2% | 23.1 µM [falling, single point] | – |
| 19 | Cc1cccc(/N=C/c2c(O)cc(C)oc2=O)n1 | -150% | – | – |
| 20 | Cc1cc(F)ccc1S(=O)(=O)N1CCC2(CC1)OCCN2S(=O)(=O)c1cccs1 | 19.1% | – | 0.366 µM [rising, full curve] |

Next results

Row | Structure (SMILES) | cell number change | AC50 [1] | AC50 [2]
22 | CCOC(=O)C1=C(CNCc2ccc(F)cc2)NC(=O)NC1c1cccc([N+](=O)[O-])c1 (centres undefined) | -11.4% | – | –
23 | Cc1cc(NC(=O)COC(=O)CCS(=O)(=O)c2ccc(Cl)cc2)no1 | 11.5% | – | 6.51 µM [rising, partial curve, poor fit]
24 | O=[N+]([O-])c1ccccc1S(=O)(=O)NCCSCc1ccco1 | 5.1% | – | 0.82 µM [falling, single point]
25 | CCCOc1ccc2cc(-c3ccccn3)c(=O)oc2c1 | 38.1% | 5.17 µM [rising, partial curve] | 5.8 µM [rising, partial curve]
26 | Cn1ccnc1SCc1cn2ccccc2n1 | 4.8% | – | –
27 | O=C(OCCN1CCOCC1)c1ccccc1 | 2.12% | – | 29.1 µM [rising, single point]
28 | Cc1nc(Cl)sc1C(=O)O | 27.5% | – | 1.84 µM [falling, single point]
29 | CC(OC(=O)C1=COCCO1)C(=O)Nc1ncc(Cl)cc1Cl (centres undefined) | – | – | 29.1 µM [rising, single point]
30 | COc1cccc(C(=O)NN/C(C)=C/C(=O)C(F)(F)C(F)(F)C(F)(F)F)c1 | -1.11% | – | 0.082 µM [falling, partial curve, poor fit]
31 | COc1ccccc1CCC(=O)OCC(=O)Nc1c(Br)cc(C)cc1Br | 12.8% | 4.11 µM [rising, single point] | –
32 | O=C(N/N=C/c1ccccn1)c1ccc(Cl)c(Cl)c1 | 5.22% | – | 17.8 µM [falling, partial curve]
33 | Cc1ccc(S(=O)(=O)N2CCN(C(=O)Cc3ccccc3)CC2)cc1C | -3.29% | – | 0.00461 µM [rising, full curve, poor fit]
34 | CCOC(=O)C1CCCN(C2CC(=O)N(c3cccc(C)c3)C2=O)C1 (centres undefined) | 10.5% | – | 0.259 µM [falling, full curve, poor fit]
35 | O=C(CN(CC1CCCO1)C(=O)CNS(=O)(=O)c1ccc(F)cc1)NCCc1ccccc1 (centres undefined) | 6.41% | – | 29.1 µM [falling, single point]
36 | COC(=O)[C@]1(C)CCC[C@@]2(C)C3CC[C@@]4(C)C[C@]3(CCC21)CC4=NO (some centres undefined) | -55.4% | 5.17 µM [falling, single point] | –
37 | COc1cc2ccccc2cc1C(=O)Nc1ccc(NC(=O)c2cccs2)cc1 | 346% | – | 0.206 µM [rising, single point]
38 | Cc1cc(C)c(S(=O)(=O)N2CCN(C)CC2)c(C)c1 | 8.86% | – | 0.82 µM [falling, partial curve, poor fit]
39 | C/C(=N\NC(=O)C(c1ccccc1)c1ccccc1)c1ccc(O)cc1 | 8.78% | – | 0.82 µM [falling, single point]
40 | Cc1cc(N2C(=O)C(=O)/C(=C(/O)c3ccc(F)cc3)C2c2ccc(F)cc2)no1 (centres undefined) | 1.68% | – | 1.16 µM [falling, single point]
41 | O=C(CSc1ncccn1)NCc1cccs1 | -27.9% | – | 6.51 µM [falling, single point]
